Values of other authors, collected in paper PMC12621045, “Development of Purine and Pyrrolopyrimidine Scaffolds as Potent, Selective, and Brain Penetrant NUAK1 Inhibitors” (ACS Medicinal Chemistry Letters, 2025).

test system: NUAK (1 or 2); set-up: method as in ChEMBL33; details: compared with NUAK1; ref ChEMBL33; cited from earlier work

Compound | # targets with higher potency
O=C(NCC(F)(F)F)c1cc(-c2cnn3cc(-c4ccc(OCCN5CCCCC5)cc4)cnc23)cs1 [CHEMBL4569508] | 4
Cn1cc(-c2cnc3c(-c4csc(C(=O)NCC(F)(F)F)c4)cnn3c2)cn1 [CHEMBL4550702] | 3
COc1c(Nc2ncc(Cl)c(N[C@H]3[C@@H](C(N)=O)[C@@H]4C=C[C@H]3C4)n2)ccc2c1CC[C@@H](N1CCOCC1)CC2 [CHEMBL2064666] | 4
CCCCNc1ncc2c(-c3ccc(CN4CCN(C)CC4)cc3)cn([C@H]3CC[C@H](O)CC3)c2n1 [UNC2025] | 6
CC1(C)C(=O)N([C@H]2CCc3c(O)cccc32)c2nc(Nc3ccccc3)ncc21 [CHEMBL3884319] | 1
C=CC(=O)Nc1cc(Nc2ncc(Cl)c(O[C@@H]3CO[C@H]4[C@@H]3OC[C@H]4OC)n2)ccc1N(C)CCN(C)C [CHEMBL5193702] | 1
CCN(CC)CCNC(=O)c1c(C)[nH]c(/C=C2\C(=O)Nc3ccc(F)cc32)c1C [Sunitinib] | 53
COc1cc(N2CCC(N3CCN(C)CC3)CC2)ccc1Nc1ncc(Cl)c(Nc2ccccc2P(C)(C)=O)n1 [Brigatinib] | 5

same assay, conditions: compared with NUAK2; ref ChEMBL33; cited from earlier work

Compound | # targets with higher potency
CCn1c(-c2nonc2N)nc2c(C#CC(C)(C)O)ncc(OC[C@H]3CCCNC3)c21 [GSK-690693] | 19
COc1cc(N2CCC(N3CCN(C)CC3)CC2)ccc1Nc1ncc(Cl)c(Nc2ccccc2S(=O)(=O)C(C)C)n1 [NVP-TAE684] | 9
Nc1nc(Nc2ccc(S(N)(=O)=O)cc2)nn1C(=O)c1c(F)cccc1F [JNJ-7706621] | 7
Cc1nc(N)sc1-c1ccnc(Nc2ccc(N3CCOCC3)cc2)n1 [CYC-116] | 3
CO[C@@H](C(=O)N1Cc2n[nH]c(NC(=O)c3ccc(N4CCN(C)CC4)cc3)c2C1)c1ccccc1 [Danusertib] | 2
COC(=O)c1ccc2c(c1)NC(=O)/C2=C(\Nc1ccc(N(C)C(=O)CN2CCN(C)CC2)cc1)c1ccccc1 [Nintedanib] | 34
